Source: US5521159A (Italfarmaco S.p.A., priority 1992, dated 1996)
Strings that start with PEPTIDE1 are HELM notation: dots part the residues, brackets hold end groups and non-standard residues.

Assay: general procedure: solution-phase peptide synthesis; DCC/HOSu; DCCI/HOBT

## PEPTIDE1{[gGly-(R,S)mLys].P.R}$$$$V2.0
Late stage modification step
  step yield: 32%
Late stage modification step, HPLC (220-254 nm)
  final HPLC purity: 96%+isomero A

## [mLys(Z)-Gly-NH2]-Pro-Arg-OH isomer A
Coupling step, 220 nm
  final HPLC purity: 96%

## [mLys(Z)-Gly-NH2]-Pro-Arg-OH isomer B
Coupling step, 220 nm
  final HPLC purity: 93%+4% of isomer A
